No constants are given. Whether binding was seen depends on the method and setting. Binding seen in cells or lysates may run through a third protein. These calls come from enrichment with a bait or labelling near it, and not all partners need be listed.

Amino acid sequences for entries named in this document (tags omitted).
UniProt Q13185: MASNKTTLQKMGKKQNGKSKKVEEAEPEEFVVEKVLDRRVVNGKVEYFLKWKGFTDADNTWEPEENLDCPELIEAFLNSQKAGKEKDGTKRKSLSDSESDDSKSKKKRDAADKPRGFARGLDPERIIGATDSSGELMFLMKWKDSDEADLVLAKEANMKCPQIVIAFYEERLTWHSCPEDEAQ
UniProt Q92769: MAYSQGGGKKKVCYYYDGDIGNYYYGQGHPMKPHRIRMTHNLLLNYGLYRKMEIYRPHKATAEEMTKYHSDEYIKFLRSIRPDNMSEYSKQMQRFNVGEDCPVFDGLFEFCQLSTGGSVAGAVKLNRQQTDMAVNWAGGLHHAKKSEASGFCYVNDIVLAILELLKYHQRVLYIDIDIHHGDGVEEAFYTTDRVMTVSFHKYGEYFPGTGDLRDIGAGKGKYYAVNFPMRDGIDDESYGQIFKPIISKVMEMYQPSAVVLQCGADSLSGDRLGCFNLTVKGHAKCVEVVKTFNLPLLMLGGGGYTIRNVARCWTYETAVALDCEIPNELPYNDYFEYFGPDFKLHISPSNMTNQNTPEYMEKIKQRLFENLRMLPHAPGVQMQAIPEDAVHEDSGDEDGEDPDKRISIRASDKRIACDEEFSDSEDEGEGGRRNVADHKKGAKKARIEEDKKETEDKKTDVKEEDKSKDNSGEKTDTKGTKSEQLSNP
UniProt Q13547: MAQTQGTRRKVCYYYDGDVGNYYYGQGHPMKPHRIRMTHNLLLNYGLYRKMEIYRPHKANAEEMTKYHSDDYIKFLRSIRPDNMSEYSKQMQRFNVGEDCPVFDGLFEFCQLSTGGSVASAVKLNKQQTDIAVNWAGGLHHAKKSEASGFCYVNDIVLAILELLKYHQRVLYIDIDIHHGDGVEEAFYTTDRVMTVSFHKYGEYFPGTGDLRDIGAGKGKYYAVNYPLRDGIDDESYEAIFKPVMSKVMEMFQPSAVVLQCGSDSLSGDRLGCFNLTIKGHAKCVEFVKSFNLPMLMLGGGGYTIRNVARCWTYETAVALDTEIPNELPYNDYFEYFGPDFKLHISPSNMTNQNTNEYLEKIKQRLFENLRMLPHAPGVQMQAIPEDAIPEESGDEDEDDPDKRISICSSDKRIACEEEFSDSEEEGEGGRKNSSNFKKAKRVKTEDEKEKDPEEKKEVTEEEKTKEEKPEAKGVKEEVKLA
UniProt Q14676: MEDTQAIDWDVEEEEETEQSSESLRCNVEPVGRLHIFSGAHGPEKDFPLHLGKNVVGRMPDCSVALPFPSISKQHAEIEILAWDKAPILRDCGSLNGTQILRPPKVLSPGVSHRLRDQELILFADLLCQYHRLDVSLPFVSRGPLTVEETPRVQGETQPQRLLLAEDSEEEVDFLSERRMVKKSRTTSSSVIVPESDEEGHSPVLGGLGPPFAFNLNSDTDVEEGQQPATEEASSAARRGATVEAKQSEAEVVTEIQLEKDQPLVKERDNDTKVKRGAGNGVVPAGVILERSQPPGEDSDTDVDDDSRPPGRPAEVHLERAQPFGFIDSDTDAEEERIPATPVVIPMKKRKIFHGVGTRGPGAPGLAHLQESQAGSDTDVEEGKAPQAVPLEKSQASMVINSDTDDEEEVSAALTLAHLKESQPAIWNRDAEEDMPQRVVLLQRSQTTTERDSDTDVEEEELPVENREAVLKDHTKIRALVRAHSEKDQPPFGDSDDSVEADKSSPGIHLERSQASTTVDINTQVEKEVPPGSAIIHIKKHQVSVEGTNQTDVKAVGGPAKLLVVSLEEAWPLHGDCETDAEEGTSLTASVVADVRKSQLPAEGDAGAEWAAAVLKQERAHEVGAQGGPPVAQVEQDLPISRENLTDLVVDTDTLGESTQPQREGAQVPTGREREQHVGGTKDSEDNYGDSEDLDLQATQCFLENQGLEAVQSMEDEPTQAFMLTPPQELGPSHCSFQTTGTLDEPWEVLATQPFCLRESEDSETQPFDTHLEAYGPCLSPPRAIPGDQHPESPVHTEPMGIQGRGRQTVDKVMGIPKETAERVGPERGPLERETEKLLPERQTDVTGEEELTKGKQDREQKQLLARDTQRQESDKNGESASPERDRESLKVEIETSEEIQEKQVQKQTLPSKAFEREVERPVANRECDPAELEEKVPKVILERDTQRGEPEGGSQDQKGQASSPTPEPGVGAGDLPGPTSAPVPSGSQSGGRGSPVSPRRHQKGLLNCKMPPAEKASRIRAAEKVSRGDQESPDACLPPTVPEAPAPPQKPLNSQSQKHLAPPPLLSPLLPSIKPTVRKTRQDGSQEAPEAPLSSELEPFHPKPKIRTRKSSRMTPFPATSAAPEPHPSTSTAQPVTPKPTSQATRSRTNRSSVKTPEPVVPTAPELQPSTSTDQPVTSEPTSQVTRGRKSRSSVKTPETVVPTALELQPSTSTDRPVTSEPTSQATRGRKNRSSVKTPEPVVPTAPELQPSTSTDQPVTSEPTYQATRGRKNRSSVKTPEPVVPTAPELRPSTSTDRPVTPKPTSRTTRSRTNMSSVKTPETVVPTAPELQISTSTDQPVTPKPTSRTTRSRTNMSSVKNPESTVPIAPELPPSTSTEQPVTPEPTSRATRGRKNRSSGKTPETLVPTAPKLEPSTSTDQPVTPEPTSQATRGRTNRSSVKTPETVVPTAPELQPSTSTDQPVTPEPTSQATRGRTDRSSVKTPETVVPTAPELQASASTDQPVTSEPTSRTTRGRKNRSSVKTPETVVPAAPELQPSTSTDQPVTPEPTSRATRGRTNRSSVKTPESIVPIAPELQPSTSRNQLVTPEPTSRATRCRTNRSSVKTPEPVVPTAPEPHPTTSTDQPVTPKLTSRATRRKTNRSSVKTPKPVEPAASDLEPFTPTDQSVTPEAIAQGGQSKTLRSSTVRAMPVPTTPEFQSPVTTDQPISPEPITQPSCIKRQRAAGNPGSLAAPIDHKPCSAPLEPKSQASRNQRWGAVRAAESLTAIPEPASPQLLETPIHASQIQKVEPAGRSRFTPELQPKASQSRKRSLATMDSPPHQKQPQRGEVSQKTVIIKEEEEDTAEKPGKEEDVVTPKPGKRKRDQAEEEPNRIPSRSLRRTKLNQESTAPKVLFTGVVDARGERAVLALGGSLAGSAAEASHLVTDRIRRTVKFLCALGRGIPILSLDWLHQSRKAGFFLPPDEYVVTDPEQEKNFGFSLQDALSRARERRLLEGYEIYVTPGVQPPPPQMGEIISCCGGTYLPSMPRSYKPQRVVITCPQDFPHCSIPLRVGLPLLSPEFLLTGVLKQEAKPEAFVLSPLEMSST

This test deals with flag-tagged HP1γ (UniProt Q13185). The test can be described thus: affinity purification with mass spectrometry; flag-tagged HP1γ overexpressed in HEK293T, HP1γ complex immunoprecipitated by flag, silver staining and mass spectrometry.
Turning to “HDAC2, endogenous in HEK293T (from UniProt Q92769 1-488) (enzyme)”, the binding entry is “binds”.
“histone deacetylase 1 (HDAC1), endogenous in HEK293T (from UniProt Q13547 1-482) (enzyme)”: the binding result was “binds”.
Turning to “MDC1, endogenous in HEK293T (from UniProt Q14676 1-2089)”, the binding result was “binds”.

Values taken from paper PMC9998874.
